# Reference: patent US20080014272A1, “Compositions and Methods for Treatment of Chronic Pain Conditions” (priority 2006, published 2008)
# Experiment: Monoiodoacetamide (MIA)-induced osteoarthritis in rats, hind paw weight distribution
# Format: in vivo, Male Wistar rats
# Settings: oral gavage (PO), Day 14 post MIA injection, 1 and 2 hours post-administration; bicifadine 5, 10, 20, 40 or 60 mg/kg, morphine 60 mg/kg; FIG. 1
# Description: Animals were fed standard rat chow with water available ad libitum.
# The rats were anesthetized with 5% volume/volume (“v/v”) isoflurane gas and maintained with 2% v/v isoflurane gas. […] MIA was dissolved in physiologic saline and administered in a volume of 50 μL. The contralateral control knee was injected with 50 μL of physiologic saline. Administration of isoflurane gas was discontinued, and the rats became fully conscious about 5 minutes later.
# Shifts in hind paw weight distribution from the right to the left hind paws supporting the right (arthritic) and the left (contralateral control) hind leg knee joints were utilized as an index of joint pain and as a measure of compound efficacy. An incapacitance tester (Model 2KG, Linton Instrumentation, UK) was employed for determination of hind paw weight distribution.
# The acute dosing paradigm used herein relates to osteoarthritis signs such as mobility and joint function and osteoarthritis symptoms such as joint pain.
structure (smiles),measurement,value
"CN1CC[C@]23c4c5ccc(O)c4O[C@H]2[C@@H](O)C=C[C@H]3[C@H]1C5 [morphine, reference compound]",Effect on osteoarthritis-related pain (change in hind paw weight distribution),significantly reduced the pain
